# In the supplement of paper PMC8728848:
# Some of the results follow.
# Key:
# Assay in all cases: glycan array binding signal (z-score within array); higher = stronger binding
# Settings in all cases: glycan notation: IUPAC condensed, linker removed
# [1] = tested on: Gal6S(b1-4)GlcNAc6S
# Method in brief: (§1)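 The binding signal is a Z-score computed within each array and averaged over linkers. Arrays of the same protein sequence at different concentrations or buffers were also averaged together. Data originate from 3228 arrays in the Consortium for Functional Glycomics database, kept only where the protein sequence was available.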
# [2] = tested on: Gal6S(b1-4)GlcNAc
# Method in brief: as §1
# [3] = tested on: Gal6S(b1-4)Glc
# Method in brief: as §1
# [4] = tested on: GalNAc(a1-3)GalNAc(b1-3)Gal(a1-4)Gal(b1-4)GlcNAc
# Method in brief: as §1
# [5] = tested on: GalNAc(a1-3)GalNAc(b1-3)Gal(a1-4)Gal(b1-4)Glc
# Method in brief: as §1
# [6] = tested on: GalNAc(a1-3)GalNAc
# Method in brief: as §1
# [7] = tested on: GalNAc(a1-3)Gal
# Method in brief: as §1
# [8] = tested on: GalNAc(b1-3)Gal(a1-4)Gal(b1-4)GlcNAc(b1-3)Gal(b1-4)Glc
# Method in brief: as §1
# [9] = tested on: GalNAc(b1-3)Gal(a1-4)Gal(b1-4)GlcNAc
# Method in brief: as §1
# [10] = tested on: GalNAc(b1-3)Gal(a1-6)Gal(b1-4)Glc
# Method in brief: as §1
# [11] = tested on: GalNAc(b1-3)GalNAc
# Method in brief: as §1
# [12] = tested on: GalNAc(b1-3)Gal
# Method in brief: as §1
# [13] = tested on: GalNAc(b1-3)GlcNAc
# Method in brief: as §1
# [14] = tested on: GalNAc(b1-4)Gal(b1-4)Glc
# Method in brief: as §1
# [15] = tested on: GalNAc(b1-4)GlcNAc(b1-2)Man(a1-3)[GalNAc(b1-4)GlcNAc(b1-2)Man(a1-6)]Man(b1-4)GlcNAc(b1-4)GlcNAc
# Method in brief: as §1
# [16] = tested on: GalNAc(b1-4)GlcNAc(b1-2)Man
# Method in brief: as §1
# [17] = tested on: GalNAc(b1-4)GlcNAc(b1-3)GalNAc(b1-4)GlcNAc
# Method in brief: as §1
# [18] = tested on: GalNAc(b1-4)GlcNAc6S
# Method in brief: as §1
# [19] = tested on: GalNAc(b1-4)GlcNAc
# Method in brief: as §1
# [20] = tested on: GalNAc(b1-6)GalNAc
# Method in brief: as §1
# [21] = tested on: GalNAc3S(b1-4)GlcNAc3S
# Method in brief: as §1
# [22] = tested on: GalNAc3S(b1-4)GlcNAc
# Method in brief: as §1
# [23] = tested on: GalNAc3S(b1-4)[Fuc(a1-3)]GlcNAc
# Method in brief: as §1
# [24] = tested on: GalNAc4S6S(b1-4)GlcNAc
# Method in brief: as §1
# [25] = tested on: GalNAc6S(b1-4)GlcNAc
# Method in brief: as §1
# [26] = tested on: Glc(a1-4)Glc(a1-4)Glc(a1-4)Glc
# Method in brief: as §1
# [27] = tested on: Glc(a1-4)Glc
# Method in brief: as §1
# [28] = tested on: Glc(a1-6)Glc(a1-6)Glc(a1-6)Glc
# Method in brief: as §1
# [29] = tested on: Glc(a1-6)Glc(a1-6)Glc
# Method in brief: as §1
# [30] = tested on: Glc(b1-4)Glc
# Method in brief: as §1
# [31] = tested on: Glc(b1-6)Glc
# Method in brief: as §1
# [32] = tested on: GlcA(b1-3)Gal
# Method in brief: as §1
# [33] = tested on: GlcA(b1-3)GlcNAc
# Method in brief: as §1
# [34] = tested on: GlcA(b1-6)Gal
# Method in brief: as §1
# [35] = tested on: GlcA3S(b1-3)Gal(b1-4)GlcNAc(b1-2)Man
# Method in brief: as §1
# [36] = tested on: GlcA3S(b1-3)Gal(b1-4)GlcNAc(b1-3)Gal(b1-4)Glc
# Method in brief: as §1
# [37] = tested on: GlcNAc(a1-3)Gal(b1-4)GlcNAc
# Method in brief: as §1
# [38] = tested on: GlcNAc(a1-4)Gal(b1-3)GlcNAc
# Method in brief: as §1
# [39] = tested on: GlcNAc(a1-4)Gal(b1-4)GalNAc
# Method in brief: as §1
# [40] = tested on: GlcNAc(a1-4)Gal(b1-4)GlcNAc(b1-3)Gal(b1-4)GlcNAc(b1-3)Gal(b1-4)GlcNAc
# Method in brief: as §1
# [41] = tested on: GlcNAc(a1-4)Gal(b1-4)GlcNAc(b1-3)Gal(b1-4)GlcNAc
# Method in brief: as §1
# [42] = tested on: GlcNAc(a1-4)Gal(b1-4)GlcNAc(b1-3)Gal(b1-4)Glc
# Method in brief: as §1
# [43] = tested on: GlcNAc(a1-4)Gal(b1-4)GlcNAc(b1-3)Gal(b1-4)[Fuc(a1-3)]GlcNAc(b1-3)Gal(b1-4)[Fuc(a1-3)]GlcNAc
# Method in brief: as §1
# [44] = tested on: GlcNAc(a1-4)Gal(b1-4)GlcNAc
# Method in brief: as §1
# [45] = tested on: GlcNAc(a1-6)Gal(b1-4)GlcNAc
# Method in brief: as §1
# [46] = tested on: GlcNAc(b1-2)Gal(b1-3)GalNAc
# Method in brief: as §1
# [47] = tested on: GlcNAc(b1-2)Man(a1-3)[GlcNAc(b1-2)Man(a1-6)]Man(b1-4)GlcNAc(b1-4)GlcNAc
# Method in brief: as §1
# [48] = tested on: GlcNAc(b1-2)Man(a1-3)[GlcNAc(b1-2)Man(a1-6)]Man(b1-4)GlcNAc(b1-4)[Fuc(a1-6)]GlcNAc
# Method in brief: as §1
# [49] = tested on: GlcNAc(b1-2)Man(a1-3)[GlcNAc(b1-4)][GlcNAc(b1-2)Man(a1-6)]Man(b1-4)GlcNAc(b1-4)GlcNAc
# Method in brief: as §1
# [50] = tested on: GlcNAc(b1-2)Man(a1-3)[GlcNAc(b1-4)][GlcNAc(b1-2)Man(a1-6)]Man(b1-4)GlcNAc(b1-4)[Fuc(a1-6)]GlcNAc
# Method in brief: as §1
# [51] = tested on: GlcNAc(b1-2)[GlcNAc(b1-4)]Man(a1-3)[GlcNAc(b1-2)Man(a1-6)]Man(b1-4)GlcNAc(b1-4)GlcNAc
# Method in brief: as §1
# [52] = tested on: GlcNAc(b1-2)[GlcNAc(b1-4)]Man(a1-3)[GlcNAc(b1-4)][GlcNAc(b1-2)Man(a1-6)]Man(b1-4)GlcNAc(b1-4)GlcNAc
# Method in brief: as §1
# [53] = tested on: GlcNAc(b1-2)[GlcNAc(b1-4)]Man(a1-3)[GlcNAc(b1-4)][GlcNAc(b1-2)[GlcNAc(b1-6)]Man(a1-6)]Man(b1-4)GlcNAc(b1-4)GlcNAc
# Method in brief: as §1
# [54] = tested on: GlcNAc(b1-2)[GlcNAc(b1-4)]Man(a1-3)[GlcNAc(b1-4)][GlcNAc(b1-2)[GlcNAc(b1-6)]Man(a1-6)]Man(b1-4)GlcNAc(b1-4)[Fuc(a1-6)]GlcNAc
# Method in brief: as §1
# [55] = tested on: GlcNAc(b1-2)[GlcNAc(b1-6)]Man(a1-6)[GlcNAc(b1-2)Man(a1-3)]Man(b1-4)GlcNAc(b1-4)GlcNAc
# Method in brief: as §1
# [56] = tested on: GlcNAc(b1-2)[GlcNAc(b1-6)]Man(a1-6)[GlcNAc(b1-2)Man(a1-3)]Man(b1-4)GlcNAc(b1-4)[Fuc(a1-6)]GlcNAc
# Method in brief: as §1
# [57] = tested on: GlcNAc(b1-2)[GlcNAc(b1-6)]Man(a1-6)[GlcNAc(b1-4)][GlcNAc(b1-2)Man(a1-3)]Man(b1-4)GlcNAc(b1-4)GlcNAc
# Method in brief: as §1
# [58] = tested on: GlcNAc(b1-3)Fuc
# Method in brief: as §1
# [59] = tested on: GlcNAc(b1-3)Gal(b1-3)GalNAc
# Method in brief: as §1
# [60] = tested on: GlcNAc(b1-3)Gal(b1-4)GlcNAc(b1-2)Man(a1-3)[GlcNAc(b1-3)Gal(b1-4)GlcNAc(b1-2)Man(a1-6)]Man(b1-4)GlcNAc(b1-4)GlcNAc
# Method in brief: as §1
# [61] = tested on: GlcNAc(b1-3)Gal(b1-4)GlcNAc(b1-2)Man(a1-3)[GlcNAc(b1-3)Gal(b1-4)GlcNAc(b1-2)Man(a1-6)]Man(b1-4)GlcNAc(b1-4)[Fuc(a1-6)]GlcNAc
# Method in brief: as §1
# [62] = tested on: GlcNAc(b1-3)Gal(b1-4)GlcNAc(b1-2)[GlcNAc(b1-3)Gal(b1-4)GlcNAc(b1-6)]Man(a1-6)[GlcNAc(b1-3)Gal(b1-4)GlcNAc(b1-2)Man(a1-3)]Man(b1-4)GlcNAc(b1-4)GlcNAc
# Method in brief: as §1
# [63] = tested on: GlcNAc(b1-3)Gal(b1-4)GlcNAc(b1-3)Gal(b1-4)GlcNAc(b1-2)Man(a1-3)[GlcNAc(b1-3)Gal(b1-4)GlcNAc(b1-3)Gal(b1-4)GlcNAc(b1-2)Man(a1-6)]Man(b1-4)GlcNAc(b1-4)GlcNAc
# Method in brief: as §1
# [64] = tested on: GlcNAc(b1-3)Gal(b1-4)GlcNAc(b1-3)Gal(b1-4)GlcNAc(b1-2)Man(a1-3)[GlcNAc(b1-3)Gal(b1-4)GlcNAc(b1-3)Gal(b1-4)GlcNAc(b1-2)Man(a1-6)]Man(b1-4)GlcNAc(b1-4)[Fuc(a1-6)]GlcNAc
# Method in brief: as §1
substance,measurement,setting,value
MpAFP RI GFP (Marinomonas primoryensis),glycan array binding signal (z-score),[1],-0.922
same,glycan array binding signal (z-score),[2],-0.634
same,glycan array binding signal (z-score),[3],-0.079
same,glycan array binding signal (z-score),[4],-0.635
same,glycan array binding signal (z-score),[5],-0.69
same,glycan array binding signal (z-score),[6],-0.566
same,glycan array binding signal (z-score),[7],-0.469
same,glycan array binding signal (z-score),[8],-0.495
same,glycan array binding signal (z-score),[9],0.291
same,glycan array binding signal (z-score),[10],-0.618
same,glycan array binding signal (z-score),[11],-0.69
same,glycan array binding signal (z-score),[12],-0.57
same,glycan array binding signal (z-score),[13],-0.595
same,glycan array binding signal (z-score),[14],0.384
same,glycan array binding signal (z-score),[15],0.824
same,glycan array binding signal (z-score),[16],-0.208
same,glycan array binding signal (z-score),[17],0.472
same,glycan array binding signal (z-score),[18],-0.46
same,glycan array binding signal (z-score),[19],0.281
same,glycan array binding signal (z-score),[20],-0.532
same,glycan array binding signal (z-score),[21],-0.53
same,glycan array binding signal (z-score),[22],-0.63
same,glycan array binding signal (z-score),[23],-0.443
same,glycan array binding signal (z-score),[24],-0.557
same,glycan array binding signal (z-score),[25],-0.789
same,glycan array binding signal (z-score),[26],-0.189
same,glycan array binding signal (z-score),[27],1.23
same,glycan array binding signal (z-score),[28],-0.208
same,glycan array binding signal (z-score),[29],-0.421
same,glycan array binding signal (z-score),[30],0.208
same,glycan array binding signal (z-score),[31],-0.091
same,glycan array binding signal (z-score),[32],-0.624
same,glycan array binding signal (z-score),[33],-0.843
same,glycan array binding signal (z-score),[34],-0.318
same,glycan array binding signal (z-score),[35],-0.704
same,glycan array binding signal (z-score),[36],-0.571
same,glycan array binding signal (z-score),[37],-0.119
same,glycan array binding signal (z-score),[38],-0.491
same,glycan array binding signal (z-score),[39],-0.203
same,glycan array binding signal (z-score),[40],-0.687
same,glycan array binding signal (z-score),[41],-0.066
same,glycan array binding signal (z-score),[42],-0.368
same,glycan array binding signal (z-score),[43],0.607
same,glycan array binding signal (z-score),[44],-0.413
same,glycan array binding signal (z-score),[45],-0.68
same,glycan array binding signal (z-score),[46],-0.363
same,glycan array binding signal (z-score),[47],0.351
same,glycan array binding signal (z-score),[48],-0.205
same,glycan array binding signal (z-score),[49],-0.188
same,glycan array binding signal (z-score),[50],-0.359
same,glycan array binding signal (z-score),[51],-0.421
same,glycan array binding signal (z-score),[52],-0.502
same,glycan array binding signal (z-score),[53],-0.185
same,glycan array binding signal (z-score),[54],-0.405
same,glycan array binding signal (z-score),[55],0.019
same,glycan array binding signal (z-score),[56],0.221
same,glycan array binding signal (z-score),[57],-0.848
same,glycan array binding signal (z-score),[58],0.273
same,glycan array binding signal (z-score),[59],-0.475
same,glycan array binding signal (z-score),[60],0.827
same,glycan array binding signal (z-score),[61],2.56
same,glycan array binding signal (z-score),[62],5.77
same,glycan array binding signal (z-score),[63],1.89
same,glycan array binding signal (z-score),[64],2.86

# An excerpt from further up, for reference:
substance,measurement,setting,value
MpAFP RI GFP (Marinomonas primoryensis),glycan array binding signal (z-score),[45],-0.68
same,glycan array binding signal (z-score),[46],-0.363
same,glycan array binding signal (z-score),[47],0.351
same,glycan array binding signal (z-score),[48],-0.205
